# Values joined by “and” are separate entries in the source; they are usually repeats but may differ in a detail not shown here. Identical values can stand only once. The list shows a part of the results. The main result of the screen is listed elsewhere. These columns were measured beside it and carry no call. Compounds called inactive in the main read-out are mostly missing here. Potencies come from curve fits of mixed quality, noted in brackets.
# Experiment: qHTS Assay to Find Inhibitors of Chronic Active B-Cell Receptor Signaling
# Conditions: ABC-DLBCL IkBa-CBG/CBR reporter, luminescence ratio (green luciferase fused to IkBa over red control in TMD8 lymphoma cells), 4 h
# Summary of the method: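 Doxycycline induced both beetle luciferases in TMD8 lymphoma cells; IKK-driven degradation limits the IkappaBalpha-fused green signal, while red luminescence normalises for cell number and nonspecific effects. Compounds tested up to 46 uM, 4 hrs.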
# [1] = measured here: CBR red luminescence, cell number
Compound,AC50 [1],AC50 (measured here: IkBa-CBG green luminescence)
Cc1cc2cc3c(cc2nc1SCC(=O)N1CCOCC1)OCO3,"6.31 µM [rising, partial curve, poor fit]",–
CCCOc1ccc(OC(=O)c2ccc(Br)o2)cc1,"17.8 µM [rising, partial curve, poor fit]",–
CCCN(CCC)CCCNC(=O)c1ccc2c(Cl)c3c(nc2c1)CCC3,"12.6 µM [falling, partial curve]",–
CCOC(=O)c1c(/N=C/C2C(=O)CCCC2=O)sc2c1CCCC2,"1 µM [falling, full curve]",–
CCOC(=O)c1cnc2ccc(Cl)cc2c1N1CCN(C)CC1,"29.1 µM [falling, single point]",–
C/C(CS(=O)(=O)c1ccc(Cl)c(Cl)c1)=N/NC(N)=S,"35.5 µM [falling, single point]",–
CCOC(=O)CNC(=O)CSc1nc(Cc2ccccc2)nc2ccccc12,"35.5 µM [falling, partial curve, poor fit]",–
CCOC(=O)C1=C(c2ccccc2)Nc2nc(C)nn2C1c1cccc(OC)c1OC (stereo not given),"1.84 µM [rising, partial curve, poor fit]",–
Cc1ccccc1NC(=O)N1CCN(C(=O)c2ccco2)CC1,"20 µM [falling, partial curve, poor fit]",–
O=C(Nc1ccc(N2CCOCC2)nc1)c1ccc(C(F)(F)F)cc1,"10 µM [rising, partial curve, poor fit]",–
CCN1C(=NCCc2c[nH]c3ccccc23)N[C@@H](c2ccccc2)C(C(=O)OC)=C1C,"10 µM [falling, partial curve] and 28.2 µM [falling, single point]",–
O=C(NC(=O)c1ccccc1)Nc1ccc(Cl)cn1,"1.26 µM [falling, full curve]",–
COCCCN1C(=O)C(=O)/C(=C(/O)c2ccc3c(c2)CC(C)O3)C1c1cccnc1 (stereo not given),"0.00411 µM [rising, full curve, poor fit]",–
Cc1ccnn1-c1ccc(C(=O)NCc2ccccc2CN2CCOCC2)cc1,"20.6 µM [falling, partial curve, poor fit]",–
CSc1ccc(C(=O)C2CCCN(S(=O)(=O)c3c(C)noc3C)C2)cc1 (stereo not given),"22.4 µM [rising, partial curve, poor fit]",–
CN(Cc1ccc(CNC[C@H]2O[C@@H](n3cnc4c(N)ncnc43)[C@H](O)[C@@H]2O)o1)S(C)(=O)=O,"0.82 µM [rising, full curve, poor fit]",–
Cc1ccc(Nc2nc(CSc3nnc(-c4ccccc4)n3C)cs2)cc1,"29.1 µM [falling, single point]",–
CC(=O)Nc1cccc(C(=O)NC2CCCc3c2cnn3-c2ccccc2F)c1 (stereo not given),"3.55 µM [rising, partial curve, poor fit]",–
[N-]=[N+]=CC(=O)CCCN1C(=O)c2ccccc2C1=O,"35.5 µM [rising, single point]",–
NC(=O)C1CCN(C(=O)COc2ccc3ccccc3c2)CC1,"0.461 µM [falling, full curve]",–

Compound,AC50 [1],AC50 (measured here: IkBa-CBG green luminescence)
O=C(NN=C1CCCC1)c1sc2ccccc2c1Cl,"12.6 µM [falling, partial curve, poor fit]",–
Cc1ccc(C(=O)Nc2nc(-c3ccco3)c(-c3ccco3)s2)o1,"0.00731 µM [falling, full curve, poor fit]",–
O=C(CCNc1n[nH]c(=O)[nH]c1=O)N/N=C\c1ccc(Br)cc1,"14.1 µM [rising, single point]",–
COc1ccc(N(C(=O)CCl)C(C(=O)NCCc2ccccc2)c2cccs2)cc1 (stereo not given),"2.91 µM [falling, partial curve]",–
COC(=O)C1=C(C)N(Cc2ccccc2)C(=NCCc2ccccn2)N[C@H]1c1cccc(C(F)(F)F)c1,"11.2 µM [falling, partial curve]",–
CC(=O)c1cccc(NC(=O)NCCc2c[nH]c3ccccc23)c1,"25.1 µM [falling, partial curve]",–
CCCc1cc(=O)n2[nH]c(-c3ccc(Br)cc3)cc2n1,"3.66 µM [falling, full curve]",–
Cn1c(SCc2cccnc2)nnc1-c1c[nH]c2ccccc12,"14.6 µM [rising, single point]",–
COc1ccccc1C(CCNCc1ccccc1)c1ccc(OC(C)C)cc1 (stereo not given),"15.8 µM [falling, single point]",–
Cc1ccc(NC(=O)CCC(=O)N2CCC(C)CC2)c([N+](=O)[O-])c1,"3.98 µM [rising, partial curve, poor fit]",–
O=C(c1cc(-c2ccccc2)nc2ccccc12)N1CCc2ccccc2C1,"29.1 µM [falling, partial curve, poor fit]",–
O=C(CCc1nnc2ccc(NCc3ccccc3)nn12)NCC1CCN(C2CCCC2)C1 (stereo not given),"35.5 µM [rising, single point]",–
Cc1ccc(NC(=O)CSc2nc(O)c(Cc3ccccc3)c(=O)n2-c2ccccc2)cc1,"11.6 µM [falling, partial curve, poor fit]",–
COc1ccc(-c2cc(C(F)F)n3ncc(C(=O)N4CCc5ccccc54)c3n2)cc1,"3.55 µM [falling, full curve]","6.31 µM [rising, full curve, poor fit]"
CCc1ccc2c(Cl)c(C(=O)N/N=C/c3c[nH]c4ccccc34)sc2c1,"35.5 µM [falling, single point]",–
CCc1ccccc1OCC(=O)NNCC(=O)Nc1cccc(C#N)c1,"29.1 µM [falling, partial curve, poor fit]",–
CCc1cccc2c(C(=O)COC(=O)c3c(C)noc3C)c[nH]c12,"17.8 µM [falling, partial curve, poor fit]",–
CN1C(=O)C2(c3ccccc31)C1CCCC=C1C(C#N)=C(N)C2(C#N)C#N (stereo not given),"1.84 µM [falling, partial curve, poor fit]",–
CCN1C(=O)C(Cc2nc3ccccc3c(=O)n2C)c2ccccc21 (stereo not given),"20 µM [falling, single point]",–
